Series [1] addresses T1, recombinant PAG-7 (bovine) (UniProt A7Y0Q3).
T1 sequence (looked up, limits assumed): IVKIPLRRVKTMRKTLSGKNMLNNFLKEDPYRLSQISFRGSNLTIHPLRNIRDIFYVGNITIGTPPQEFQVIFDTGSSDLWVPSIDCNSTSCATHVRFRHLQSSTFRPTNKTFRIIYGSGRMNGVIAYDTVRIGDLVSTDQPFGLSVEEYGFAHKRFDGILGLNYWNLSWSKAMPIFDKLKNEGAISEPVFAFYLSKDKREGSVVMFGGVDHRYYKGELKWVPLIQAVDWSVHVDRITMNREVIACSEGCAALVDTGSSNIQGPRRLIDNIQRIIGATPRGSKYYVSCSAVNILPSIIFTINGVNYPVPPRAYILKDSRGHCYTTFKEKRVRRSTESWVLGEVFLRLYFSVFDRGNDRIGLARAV
Kind of series: dot blot (ST-HRP, ECL). To be noted: recombinant protein; label: biotin; single-stranded DNA.

A further series concerns the target PAG-7 peptide (bovine) (UniProt A7Y0Q3). The series can be described thus: dot blot (ST-HRP, ECL/DAB). To be noted: label: biotin; single-stranded DNA.
The target in another series is PAG-18 peptide (bovine) (UniProt Q9TTV6). The series can be described thus: dot blot (ST-HRP, ECL/DAB). To be noted: label: 5' biotin; single-stranded DNA.
The target of series [2] is T2, recombinant PAG-18 (bovine) (UniProt Q9TTV6).
T2 sequence (looked up, limits assumed): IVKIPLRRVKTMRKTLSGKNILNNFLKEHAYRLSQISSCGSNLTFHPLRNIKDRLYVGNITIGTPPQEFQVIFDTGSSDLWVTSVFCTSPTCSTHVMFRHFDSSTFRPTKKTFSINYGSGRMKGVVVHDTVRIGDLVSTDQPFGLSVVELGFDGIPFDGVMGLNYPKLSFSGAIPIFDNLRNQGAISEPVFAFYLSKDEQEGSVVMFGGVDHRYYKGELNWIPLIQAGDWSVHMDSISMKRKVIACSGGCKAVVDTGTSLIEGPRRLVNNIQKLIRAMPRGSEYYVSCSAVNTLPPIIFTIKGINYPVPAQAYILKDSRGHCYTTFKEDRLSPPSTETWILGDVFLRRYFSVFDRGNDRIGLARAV
The series can be described thus: dot blot (ST-HRP, ECL/DAB). To be noted: recombinant protein; label: 5' biotin; single-stranded DNA.

For at least one entry, the source does not settle the construct or the ends of the probe. At least one verdict was read from the data and is not stated in words by the source. For some of these results: Where a protein sequence is shown, tags need not be part of it.

On to “TAGGGAAGAGAAGGACATATGATGCGTATTACCTAGTTTGAGTCCCATGAAACGATGCACTGGTTGACTAGTACATGACCACTTGA [PAG7_47]”, for which the binding result (in series [1]; with PAG-7 peptide (bovine)) was “binds” in each case.

Consider “TAGGGAAGAGAAGGACATATGATTATCATTCCTTTTAGTGGAGACACACGCATCTCGTGTGCTTTGACTAGTACATGACCACTTGA [PAG18_91]”, for which the binding result (with PAG-18 peptide (bovine); in series [2]) was “binds” throughout.

For the origin of these results see article PMC8636505.
